Reference: the supplement of paper PMC10338343
± gives the standard deviation. This is a selection; strong and weak results do not stand in their true shares. Many of these values have a large error. Some of the results follow.

Tests used:
[1] = tested on: MILI (PIWIL2) piRISC loaded with L1MC piRNA (26 nt); experiment: pre-steady-state target cleavage rate (min^-1); higher = faster piRNA-guided slicing of the target; details: guide: L1MC piRNA 5'p-UAACUAAAUACUAUGCAAGCUGUAGG
Method in brief: (§1)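 A transcribed, DNA-blocked target RNA library (0.1 nM) and 1 nM active affinity-purified piRISC bearing one synthetic guide were incubated in HEPES–potassium acetate buffer at 33 °C for 0–8 or 0–960 min, either with or without 500 nM GTSF1 partner protein. Uncleaved targets were sequenced, normalised to depth and to weakly complementary targets, and pooled over three trials, with k3 capped at 0.0001 min^-1. The pre-steady-state cleavage rate was derived with a burst-and-steady-state fit.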

[2] = tested on: MIWI (PIWIL1) piRISC loaded with L1MC piRNA (30 nt); experiment: as above; details: guide: L1MC piRNA 5'p-UAACUAAAUACUAUGCAAGCUGUAGGUCCU
Method in brief: as §1

[3] = tested on: EfPiwi piRISC loaded with L1MC piRNA (26 nt); experiment: pre-steady-state target cleavage rate (min^-1); guide: L1MC piRNA 5'p-UAACUAAAUACUAUGCAAGCUGUAGG; MIWI and MILI are mouse PIWI proteins and EfPiwi is from a freshwater sponge; tags in brackets are library labels; higher = faster piRNA-guided slicing of the target
Method in brief: as §1

[4] = auxiliary factor: 500 nM mouse GTSF1
[5] = auxiliary factor: none (no GTSF1)
[6] = auxiliary factor: 500 nM Ephydatia muelleri Gtsf1
[7] = auxiliary factor: none (no Gtsf1)

Row | Sequence | pre-steady-state target cleavage rate [1, 4] | pre-steady-state target cleavage rate [1, 5] | pre-steady-state target cleavage rate [2, 4] | pre-steady-state target cleavage rate [2, 5] | pre-steady-state target cleavage rate [3, 6] | pre-steady-state target cleavage rate [3, 7]
1 | UCCUGGAUGAGCUUGCAUAGUAAAAACAAA | 0.00142 ± 0.0077 | 0.00018 ± 0.021 | 0.000655 ± 0.018 | 0.000341 ± 0.013 | 0.000451 ± 0.0086 | 0.000168 ± 0.048
2 | UCCUGGAUGUGGUUGCUUAGUAUUUAGUUA | 0.107 ± 0.02 | 0.0132 ± 0.0037 | 0.00328 ± 0.0059 | 0.00312 ± 0.0034 | 0.00232 ± 0.0064 | 0.000484 ± 0.03
3 | UCCUGGAUGUCCUUGCAUAGAUAUUUAGUUA | 0.00754 ± 0.004 | 0.00426 ± 0.0023 | 0.003 ± 0.0041 | 0.00231 ± 0.0036 | 0.00146 ± 0.0046 | 0.000333 ± 0.015
4 | UCCUGGAUCAGCUUGCAUAGUAAAAAGAAA |  | 0.00088 ± 0.0065 |  | 0.000399 ± 0.0076 | 0.000761 ± 0.0051 | 0.000248 ± 0.031
5 | UCCUGGAUCAGCUUGCAUAGUUAAUAGAAA | 0.00273 ± 0.0047 | 0.00105 ± 0.0059 | 0.00192 ± 0.0058 | 0.00115 ± 0.0038 | 0.000577 ± 0.0061 | 0.000279 ± 0.023
6 | UCCUGGAUGUCGAUGCAUAUGUAUUUAGUUA | 0.00101 ± 0.0093 | 0.000662 ± 0.01 | 0.000186 ± 0.043 | 0.000671 ± 0.011 | 0.000533 ± 0.0066 | 0.000111 ± 0.037
7 | UCCUGGAACAGCUUGCAAUGUAUUUAGAAA |  | 0.00163 ± 0.0045 |  | 0.00321 ± 0.0033 | 0.00187 ± 0.0053 | 0.000764 ± 0.013
8 | UCCUGGUACAGCUUGGUAAGUAUUUUCAAA | 0.00138 ± 0.0099 | 0.00114 ± 0.0069 | 0.000955 ± 0.017 | 0.000276 ± 0.0092 | 0.00026 ± 0.035 | 0.000693 ± 0.013
9 | UCCUGGAUCAGCUUGCGAUAGUAUUUAGUUA |  | 0.000707 ± 0.0076 |  | 0.00226 ± 0.003 | 0.00281 ± 0.0027 | 0.000452 ± 0.013
10 | UCCUGGAUGUCGAAGCAUAGUACUUAGUUA | 0.00746 ± 0.0031 | 0.00231 ± 0.0031 | 0.00198 ± 0.0044 | 0.00125 ± 0.0043 | 0.000285 ± 0.016 | 0.000762 ± 0.0098
11 | UCCUGGAUGUCGAACCAUAGUAUUUAGUUA | 0.00718 ± 0.0019 | 0.000321 ± 0.0056 | 0.00135 ± 0.0031 | 0.000447 ± 0.0084 | 0.00115 ± 0.0066 | 0.00024 ± 0.015
12 | UCCUGGAUGUCGUUGCAUUAGUAUUUAGUUA | 0.0014 ± 0.0066 | 0.00147 ± 0.0052 | 0.000104 ± 0.042 | 0.00115 ± 0.0072 | 0.00037 ± 0.0086 | 0.000402 ± 0.02
13 | UCCUGGAUGAGCUUGCAUAGUAUUAUGAAA | 0.00473 ± 0.0045 | 0.001 ± 0.0068 | 0.0112 ± 0.0054 | 0.00248 ± 0.0035 | 0.000852 ± 0.0034 | 0.000503 ± 0.015
14 | UCCUGGAUGAGCUUGCAUUCUAUUUAGUAA | 0.00157 ± 0.0074 | 0.000381 ± 0.017 | 0.00286 ± 0.0054 | 0.000853 ± 0.0078 | 0.000534 ± 0.007 | 0.000103 ± 0.041
15 | UCCUGGAACAGCUUGCAUACAAUUUACAAA |  | 0.000184 ± 0.014 |  | 0.000278 ± 0.014 | 0.000806 ± 0.0042 | 0.00076 ± 0.0096
16 | UCCUGGAACAGCUUGCUUAGUAUUUACAAA |  | 0.00122 ± 0.0052 |  | 0.00253 ± 0.0036 | 0.00134 ± 0.0041 | 0.000501 ± 0.013
17 | UCCUGCUACUCGUUGCAUAGUAUUUAGAAA | 0.179 ± 0.032 | 0.00107 ± 0.0047 | 0.0557 ± 0.014 | 0.00186 ± 0.0036 | 0.00275 ± 0.0031 | 0.000771 ± 0.009
18 | UCCUGGAACAGCUACCAUAGUAUUUUCAAA |  | 0.000447 ± 0.013 |  | 0.000732 ± 0.01 | 0.000668 ± 0.006 | 0.000386 ± 0.018
19 | UCCUGGAUGUCGUUGCAUAGUUUUUUGUUA | 0.00172 ± 0.0071 | 0.00137 ± 0.0054 | 0.000808 ± 0.011 | 0.000801 ± 0.012 | 0.000356 ± 0.011 | 0.000432 ± 0.022

Two records drawn at random from the list so far:
Row | Sequence | pre-steady-state target cleavage rate [1, 4] | pre-steady-state target cleavage rate [1, 5] | pre-steady-state target cleavage rate [2, 4] | pre-steady-state target cleavage rate [2, 5] | pre-steady-state target cleavage rate [3, 6] | pre-steady-state target cleavage rate [3, 7]
17 | UCCUGCUACUCGUUGCAUAGUAUUUAGAAA | 0.179 ± 0.032 | 0.00107 ± 0.0047 | 0.0557 ± 0.014 | 0.00186 ± 0.0036 | 0.00275 ± 0.0031 | 0.000771 ± 0.009
4 | UCCUGGAUCAGCUUGCAUAGUAAAAAGAAA |  | 0.00088 ± 0.0065 |  | 0.000399 ± 0.0076 | 0.000761 ± 0.0051 | 0.000248 ± 0.031

The list goes on.

Row | Sequence | pre-steady-state target cleavage rate [1, 4] | pre-steady-state target cleavage rate [1, 5] | pre-steady-state target cleavage rate [2, 4] | pre-steady-state target cleavage rate [2, 5] | pre-steady-state target cleavage rate [3, 6] | pre-steady-state target cleavage rate [3, 7]
20 | UCCUGGAUGAGCUUGCAUAGUUAAAUCAAA [g10:g21:cont:t1A] | 0.000858 ± 0.0092 | 0.00043 ± 0.016 | 0.000685 ± 0.013 | 0.000702 ± 0.0073 | 0.000586 ± 0.0085 | 0.000496 ± 0.017
21 | UCCUGGAUGUGCUUGCAUAGAUUUAGUUA | 0.00189 ± 0.0063 | 0.00117 ± 0.0044 | 0.00287 ± 0.0053 | 0.00169 ± 0.004 | 0.00126 ± 0.0046 | 0.000721 ± 0.012
22 | UCCUGGAACAGCUUGCAUAGUAUAUUCAAA |  | 0.000657 ± 0.0075 |  | 0.00116 ± 0.006 | 0.00181 ± 0.0037 | 0.000416 ± 0.013
23 | UCCUGCUAGUGCUUGCAUAGUAUUUACAAA |  | 0.000469 ± 0.0093 |  | 0.00195 ± 0.0029 | 0.000936 ± 0.0034 | 0.000131 ± 0.045
24 | UCCUGGAUCAGCUUGCAUACAUUUUAGUUA | 0.00212 ± 0.005 | 0.00176 ± 0.0045 | 0.00149 ± 0.0079 | 0.00132 ± 0.0051 | 0.000366 ± 0.0073 | 0.000161 ± 0.044
25 | UCCUGGAUGAGCUUGGUUAGUAUUUACAAA | 0.00156 ± 0.0073 | 0.00105 ± 0.0071 | 0.000389 ± 0.026 | 0.00072 ± 0.01 | 0.000268 ± 0.029 | 0.000733 ± 0.012
26 | UCCUGGAUGUCCUUGCUUAGUAUUUAGAUA | 0.0358 ± 0.0092 | 0.00226 ± 0.0024 | 0.00397 ± 0.004 | 0.00153 ± 0.0049 | 0.000347 ± 0.013 | 0.00019 ± 0.029
27 | UCCUGGAACAGCUUGCAAUCUAUUUAGAAA | 0.00239 ± 0.0047 | 0.000194 ± 0.015 | 0.00161 ± 0.0067 | 0.000441 ± 0.0077 | 0.000283 ± 0.017 | 0.000416 ± 0.012
28 | UCCUGGAACAGCUACGAUAGUAUUUACAAA | 0.00237 ± 0.0051 | 0.000596 ± 0.0083 | 0.000946 ± 0.011 | 0.00111 ± 0.007 | 0.0003 ± 0.014 | 0.000108 ± 0.059
29 | UCCUGGUACAGCUACGAUAGUAUUUUCAAA |  | 0.00116 ± 0.0074 |  | 0.000533 ± 0.0099 | 0.000203 ± 0.038 | 0.000188 ± 0.038
30 | UCCUGGAUGUCGAAGGAUAGUAUUUAGUUA | 0.00242 ± 0.0026 | 0.00014 ± 0.015 | 0.000216 ± 0.017 | 0.000358 ± 0.011 | 0.000208 ± 0.015 | < 0.0001
31 | UCCUCCUACAGCUUGCAAAGUUUUUAGUUA | 0.0169 ± 0.0064 | 0.00334 ± 0.0023 | 0.352 ± 0.029 | 0.0137 ± 0.0033 | 0.00281 ± 0.0022 | 0.000546 ± 0.011
32 | UCCUGGAUGAGCUUGCAUUAGUAUUUAGUUA | 0.00494 ± 0.0045 | 0.000314 ± 0.0096 | 0.00225 ± 0.0049 | 0.000838 ± 0.011 | 0.000454 ± 0.0094 | 0.000482 ± 0.017
33 | UCCUGGAUCAGCUUGCAUAGUUUUUUCAAA | 0.00833 ± 0.0048 | 0.000832 ± 0.006 | 0.00403 ± 0.0041 | 0.00113 ± 0.0049 | 0.00141 ± 0.0037 | 0.000463 ± 0.014
34 | UCCUGGAACAGGUUGCAUAGUUUUUAGUUA | 0.0335 ± 0.0065 | 0.00467 ± 0.0021 | 0.167 ± 0.016 | 0.0162 ± 0.0044 | 0.00366 ± 0.0018 | 0.00148 ± 0.0075
35 | UCCUGGAUGUGCUUGCAUAGAAAUUAGUUA | 0.00244 ± 0.0048 | 0.00194 ± 0.0034 | 0.00115 ± 0.01 | 0.00139 ± 0.0049 | 0.000492 ± 0.0076 | 0.00026 ± 0.035
36 | UCCUGGAUGAGCUUGCAUACAAUUUAGUUA | 0.00171 ± 0.0058 | 0.00149 ± 0.0035 | 0.00302 ± 0.0041 | 0.00113 ± 0.0037 | 0.000752 ± 0.0044 | 0.000118 ± 0.06
37 | UCCUGCUACAGGAUGCAUAGUAUUUACAAA |  | 0.000678 ± 0.0065 |  | 0.000674 ± 0.0067 | 0.0011 ± 0.0023 | 0.000283 ± 0.021
38 | UCCUGGAUGUCGUUGCAUAGAUUUUAGUUA | 0.00302 ± 0.0046 | 0.00439 ± 0.0019 | 0.000151 ± 0.061 | 0.000864 ± 0.007 | 0.000318 ± 0.0076 | 0.000162 ± 0.041
